PMC10901237
No constants are given. Whether binding was seen depends on the method and setting. In cells and extracts the contact can be indirect. Some results given as binding are weak or reduced against the parent protein; the word gives no strength.

Sequences of proteins named here, by UniProt entry; tags and fusion partners are left off.
UniProt Q15154: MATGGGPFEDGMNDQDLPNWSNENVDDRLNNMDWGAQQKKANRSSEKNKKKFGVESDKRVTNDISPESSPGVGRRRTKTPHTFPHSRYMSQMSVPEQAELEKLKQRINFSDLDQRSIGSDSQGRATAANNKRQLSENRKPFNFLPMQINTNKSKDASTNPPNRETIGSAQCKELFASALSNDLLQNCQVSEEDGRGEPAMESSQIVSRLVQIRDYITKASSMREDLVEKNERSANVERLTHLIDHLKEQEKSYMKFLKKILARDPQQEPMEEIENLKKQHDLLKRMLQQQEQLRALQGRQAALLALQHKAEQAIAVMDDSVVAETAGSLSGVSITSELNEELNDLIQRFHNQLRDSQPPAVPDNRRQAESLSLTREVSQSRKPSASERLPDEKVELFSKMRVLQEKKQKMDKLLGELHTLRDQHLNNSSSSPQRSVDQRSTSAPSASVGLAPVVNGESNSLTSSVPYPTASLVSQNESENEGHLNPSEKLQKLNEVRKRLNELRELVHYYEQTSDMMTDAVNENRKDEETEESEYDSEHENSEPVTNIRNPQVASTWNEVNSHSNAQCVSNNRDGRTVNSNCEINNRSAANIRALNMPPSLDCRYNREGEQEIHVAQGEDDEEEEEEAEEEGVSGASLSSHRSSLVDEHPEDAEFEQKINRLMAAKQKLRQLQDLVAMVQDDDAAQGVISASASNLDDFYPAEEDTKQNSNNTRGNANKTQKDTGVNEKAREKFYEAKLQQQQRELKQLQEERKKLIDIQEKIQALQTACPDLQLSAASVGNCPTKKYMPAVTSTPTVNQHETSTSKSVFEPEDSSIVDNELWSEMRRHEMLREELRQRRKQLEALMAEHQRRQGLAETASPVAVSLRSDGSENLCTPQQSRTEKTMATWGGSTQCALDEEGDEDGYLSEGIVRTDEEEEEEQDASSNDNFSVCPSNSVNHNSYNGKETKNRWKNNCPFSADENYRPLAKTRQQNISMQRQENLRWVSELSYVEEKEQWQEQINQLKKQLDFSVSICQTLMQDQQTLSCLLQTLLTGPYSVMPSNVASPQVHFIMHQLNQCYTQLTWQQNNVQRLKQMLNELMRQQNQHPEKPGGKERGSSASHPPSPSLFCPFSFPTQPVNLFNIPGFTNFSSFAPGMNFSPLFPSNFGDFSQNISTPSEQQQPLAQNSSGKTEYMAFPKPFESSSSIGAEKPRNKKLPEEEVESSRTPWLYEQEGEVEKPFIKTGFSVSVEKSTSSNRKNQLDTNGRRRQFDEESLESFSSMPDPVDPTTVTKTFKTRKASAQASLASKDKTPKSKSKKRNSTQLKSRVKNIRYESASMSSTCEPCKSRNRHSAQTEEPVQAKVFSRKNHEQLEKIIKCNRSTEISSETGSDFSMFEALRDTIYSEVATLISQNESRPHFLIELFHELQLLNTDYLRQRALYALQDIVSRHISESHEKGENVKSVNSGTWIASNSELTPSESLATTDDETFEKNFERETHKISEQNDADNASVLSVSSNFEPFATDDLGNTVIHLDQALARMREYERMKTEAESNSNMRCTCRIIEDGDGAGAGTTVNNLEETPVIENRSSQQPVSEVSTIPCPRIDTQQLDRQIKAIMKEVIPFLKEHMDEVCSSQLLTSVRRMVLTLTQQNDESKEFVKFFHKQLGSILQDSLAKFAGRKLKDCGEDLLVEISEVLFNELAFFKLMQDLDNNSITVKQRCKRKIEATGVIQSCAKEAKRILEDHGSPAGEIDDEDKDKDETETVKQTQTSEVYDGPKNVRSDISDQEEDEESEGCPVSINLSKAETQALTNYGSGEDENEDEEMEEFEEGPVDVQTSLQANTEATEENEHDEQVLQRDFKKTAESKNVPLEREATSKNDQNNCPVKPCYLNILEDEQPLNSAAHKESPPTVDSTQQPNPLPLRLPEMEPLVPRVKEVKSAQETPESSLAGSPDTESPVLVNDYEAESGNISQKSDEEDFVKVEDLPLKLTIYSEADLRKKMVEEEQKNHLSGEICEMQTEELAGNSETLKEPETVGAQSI
UniProt Q5TZA2: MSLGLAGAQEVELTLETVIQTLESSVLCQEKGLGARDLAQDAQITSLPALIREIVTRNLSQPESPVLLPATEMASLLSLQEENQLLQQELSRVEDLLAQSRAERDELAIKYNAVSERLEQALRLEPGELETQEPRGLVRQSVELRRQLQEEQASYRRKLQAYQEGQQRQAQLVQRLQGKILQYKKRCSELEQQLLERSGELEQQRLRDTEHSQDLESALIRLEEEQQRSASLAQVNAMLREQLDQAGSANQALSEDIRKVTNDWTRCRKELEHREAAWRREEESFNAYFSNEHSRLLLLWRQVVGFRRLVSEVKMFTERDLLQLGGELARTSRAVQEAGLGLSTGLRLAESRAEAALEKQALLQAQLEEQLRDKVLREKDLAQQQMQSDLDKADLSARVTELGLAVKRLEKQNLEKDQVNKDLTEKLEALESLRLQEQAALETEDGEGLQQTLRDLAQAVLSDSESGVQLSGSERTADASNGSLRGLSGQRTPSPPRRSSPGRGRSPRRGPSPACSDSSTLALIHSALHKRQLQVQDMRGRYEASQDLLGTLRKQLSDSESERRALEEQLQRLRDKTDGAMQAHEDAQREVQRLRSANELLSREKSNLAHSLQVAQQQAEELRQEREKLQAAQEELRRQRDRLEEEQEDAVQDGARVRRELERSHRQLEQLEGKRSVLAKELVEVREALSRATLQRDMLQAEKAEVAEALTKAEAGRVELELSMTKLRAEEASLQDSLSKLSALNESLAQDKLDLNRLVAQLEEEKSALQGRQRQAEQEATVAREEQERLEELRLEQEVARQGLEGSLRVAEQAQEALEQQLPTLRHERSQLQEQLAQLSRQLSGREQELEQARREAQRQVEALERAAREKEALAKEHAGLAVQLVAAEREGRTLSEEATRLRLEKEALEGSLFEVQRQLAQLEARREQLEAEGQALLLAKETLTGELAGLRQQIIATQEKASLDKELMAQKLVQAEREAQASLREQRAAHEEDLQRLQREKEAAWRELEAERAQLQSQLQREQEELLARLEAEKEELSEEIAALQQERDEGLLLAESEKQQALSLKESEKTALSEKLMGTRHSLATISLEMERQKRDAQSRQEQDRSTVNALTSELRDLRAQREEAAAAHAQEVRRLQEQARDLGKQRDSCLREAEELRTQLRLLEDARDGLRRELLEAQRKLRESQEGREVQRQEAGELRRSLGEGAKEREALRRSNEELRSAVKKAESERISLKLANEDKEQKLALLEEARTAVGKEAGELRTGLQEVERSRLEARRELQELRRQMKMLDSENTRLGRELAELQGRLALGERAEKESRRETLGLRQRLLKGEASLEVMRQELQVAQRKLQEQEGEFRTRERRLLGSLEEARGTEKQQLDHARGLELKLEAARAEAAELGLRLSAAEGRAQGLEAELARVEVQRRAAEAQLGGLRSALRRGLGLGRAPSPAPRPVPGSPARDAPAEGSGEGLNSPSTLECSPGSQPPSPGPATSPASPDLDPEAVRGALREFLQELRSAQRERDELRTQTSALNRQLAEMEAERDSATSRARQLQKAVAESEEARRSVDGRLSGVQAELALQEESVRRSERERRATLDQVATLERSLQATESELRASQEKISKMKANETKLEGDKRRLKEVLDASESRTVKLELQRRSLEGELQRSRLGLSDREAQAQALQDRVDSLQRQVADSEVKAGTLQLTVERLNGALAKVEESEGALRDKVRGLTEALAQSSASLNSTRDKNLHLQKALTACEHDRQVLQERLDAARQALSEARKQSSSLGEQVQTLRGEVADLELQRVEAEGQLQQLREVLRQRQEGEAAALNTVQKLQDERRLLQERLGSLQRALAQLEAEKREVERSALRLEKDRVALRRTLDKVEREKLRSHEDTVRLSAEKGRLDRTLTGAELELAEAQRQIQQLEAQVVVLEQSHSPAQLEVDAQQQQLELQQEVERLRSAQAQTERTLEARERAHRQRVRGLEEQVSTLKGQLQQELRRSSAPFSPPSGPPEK

How the values were obtained:
[1] = target: PCM1 (endogenous, RPE1) (human (endogenous in RPE1)) (UniProt Q15154); test: co-IP; reciprocal: the same RPE1 lysates immunoprecipitated with the PCM1 antibody (Protein A Sepharose), blots for PCM1, CROCC and FLAG; rabbit IgG as negative control
FLAG-CROCC^FL = FLAG-CROCC^FL (UniProt Q5TZA2); test: co-IP; lysates of RPE1 cells expressing FLAG-CROCC proteins, FLAG-M2 affinity gel 90 min at 4°C, blots for endogenous proteins; lysis buffer 50 mM Tris-HCl pH 8.0, 5 mM EDTA, 150 mM NaCl, 0.5% Triton X-100; also in CEP131-depleted cells and after 20 μM nocodazole for 2 h

binding [1] | binding (FLAG-CROCC^FL) | Substance
binds | – | FLAG-CROCC^FL (from UniProt Q5TZA2 1-2017)
– | binds | PCM1 (endogenous, RPE1) (from UniProt Q15154 1-2024)
